No constants are given. Whether binding was seen depends on the method and setting. For some of these results: In cells and extracts the contact can be indirect. Some binding calls cover weakened binding; strength is not graded here. For some of these results: Sequences can lack the tags named with a protein.
Tests used:
[1] = molecular target: carboxy-terminal 155 amino acids of pAPC (UniProt P25054); assay: yeast two-hybrid cDNA library screening
[2] = molecular target: GST-pAPC fusion protein (pAPC a.a. 2543-2843) [GST: P08515]; assay: GST pull-down, 35S-labeled in vitro translated protein
[3] = molecular target: GST-pAPC fusion protein (pAPC a.a. 2688-2843) [GST: P08515]; assay: as above
[4] = molecular target: GST-pAPC fusion protein (pAPC a.a. 2543-2843) [GST: P08515]; assay: GST pull-down, 35S-labeled in vitro translated protein (legend of FIG. 1D)
[5] = molecular target: GST-pAPC fusion protein (pAPC a.a. 2688-2843) [GST: P08515]; assay: as above
[6] = molecular target: endogenous pAPC (APC protein, 2843 amino acids) (UniProt P25054); assay: co-immunoprecipitation from 293T whole cell extract, anti-Myc immunoblot (legend of FIG. 1E)
[7] = molecular target: endogenous pAPC (APC protein, 2843 amino acids) (UniProt P25054); assay: co-immunoprecipitation from 293T whole cell extract with anti-pAPC Ab-5, anti-Myc immunoblot

Amino acid sequences for entries named in this document (tags omitted). A change or cut given only in a name is not applied to a line headed by its entry. Residues count along the entry.
UniProt P25054: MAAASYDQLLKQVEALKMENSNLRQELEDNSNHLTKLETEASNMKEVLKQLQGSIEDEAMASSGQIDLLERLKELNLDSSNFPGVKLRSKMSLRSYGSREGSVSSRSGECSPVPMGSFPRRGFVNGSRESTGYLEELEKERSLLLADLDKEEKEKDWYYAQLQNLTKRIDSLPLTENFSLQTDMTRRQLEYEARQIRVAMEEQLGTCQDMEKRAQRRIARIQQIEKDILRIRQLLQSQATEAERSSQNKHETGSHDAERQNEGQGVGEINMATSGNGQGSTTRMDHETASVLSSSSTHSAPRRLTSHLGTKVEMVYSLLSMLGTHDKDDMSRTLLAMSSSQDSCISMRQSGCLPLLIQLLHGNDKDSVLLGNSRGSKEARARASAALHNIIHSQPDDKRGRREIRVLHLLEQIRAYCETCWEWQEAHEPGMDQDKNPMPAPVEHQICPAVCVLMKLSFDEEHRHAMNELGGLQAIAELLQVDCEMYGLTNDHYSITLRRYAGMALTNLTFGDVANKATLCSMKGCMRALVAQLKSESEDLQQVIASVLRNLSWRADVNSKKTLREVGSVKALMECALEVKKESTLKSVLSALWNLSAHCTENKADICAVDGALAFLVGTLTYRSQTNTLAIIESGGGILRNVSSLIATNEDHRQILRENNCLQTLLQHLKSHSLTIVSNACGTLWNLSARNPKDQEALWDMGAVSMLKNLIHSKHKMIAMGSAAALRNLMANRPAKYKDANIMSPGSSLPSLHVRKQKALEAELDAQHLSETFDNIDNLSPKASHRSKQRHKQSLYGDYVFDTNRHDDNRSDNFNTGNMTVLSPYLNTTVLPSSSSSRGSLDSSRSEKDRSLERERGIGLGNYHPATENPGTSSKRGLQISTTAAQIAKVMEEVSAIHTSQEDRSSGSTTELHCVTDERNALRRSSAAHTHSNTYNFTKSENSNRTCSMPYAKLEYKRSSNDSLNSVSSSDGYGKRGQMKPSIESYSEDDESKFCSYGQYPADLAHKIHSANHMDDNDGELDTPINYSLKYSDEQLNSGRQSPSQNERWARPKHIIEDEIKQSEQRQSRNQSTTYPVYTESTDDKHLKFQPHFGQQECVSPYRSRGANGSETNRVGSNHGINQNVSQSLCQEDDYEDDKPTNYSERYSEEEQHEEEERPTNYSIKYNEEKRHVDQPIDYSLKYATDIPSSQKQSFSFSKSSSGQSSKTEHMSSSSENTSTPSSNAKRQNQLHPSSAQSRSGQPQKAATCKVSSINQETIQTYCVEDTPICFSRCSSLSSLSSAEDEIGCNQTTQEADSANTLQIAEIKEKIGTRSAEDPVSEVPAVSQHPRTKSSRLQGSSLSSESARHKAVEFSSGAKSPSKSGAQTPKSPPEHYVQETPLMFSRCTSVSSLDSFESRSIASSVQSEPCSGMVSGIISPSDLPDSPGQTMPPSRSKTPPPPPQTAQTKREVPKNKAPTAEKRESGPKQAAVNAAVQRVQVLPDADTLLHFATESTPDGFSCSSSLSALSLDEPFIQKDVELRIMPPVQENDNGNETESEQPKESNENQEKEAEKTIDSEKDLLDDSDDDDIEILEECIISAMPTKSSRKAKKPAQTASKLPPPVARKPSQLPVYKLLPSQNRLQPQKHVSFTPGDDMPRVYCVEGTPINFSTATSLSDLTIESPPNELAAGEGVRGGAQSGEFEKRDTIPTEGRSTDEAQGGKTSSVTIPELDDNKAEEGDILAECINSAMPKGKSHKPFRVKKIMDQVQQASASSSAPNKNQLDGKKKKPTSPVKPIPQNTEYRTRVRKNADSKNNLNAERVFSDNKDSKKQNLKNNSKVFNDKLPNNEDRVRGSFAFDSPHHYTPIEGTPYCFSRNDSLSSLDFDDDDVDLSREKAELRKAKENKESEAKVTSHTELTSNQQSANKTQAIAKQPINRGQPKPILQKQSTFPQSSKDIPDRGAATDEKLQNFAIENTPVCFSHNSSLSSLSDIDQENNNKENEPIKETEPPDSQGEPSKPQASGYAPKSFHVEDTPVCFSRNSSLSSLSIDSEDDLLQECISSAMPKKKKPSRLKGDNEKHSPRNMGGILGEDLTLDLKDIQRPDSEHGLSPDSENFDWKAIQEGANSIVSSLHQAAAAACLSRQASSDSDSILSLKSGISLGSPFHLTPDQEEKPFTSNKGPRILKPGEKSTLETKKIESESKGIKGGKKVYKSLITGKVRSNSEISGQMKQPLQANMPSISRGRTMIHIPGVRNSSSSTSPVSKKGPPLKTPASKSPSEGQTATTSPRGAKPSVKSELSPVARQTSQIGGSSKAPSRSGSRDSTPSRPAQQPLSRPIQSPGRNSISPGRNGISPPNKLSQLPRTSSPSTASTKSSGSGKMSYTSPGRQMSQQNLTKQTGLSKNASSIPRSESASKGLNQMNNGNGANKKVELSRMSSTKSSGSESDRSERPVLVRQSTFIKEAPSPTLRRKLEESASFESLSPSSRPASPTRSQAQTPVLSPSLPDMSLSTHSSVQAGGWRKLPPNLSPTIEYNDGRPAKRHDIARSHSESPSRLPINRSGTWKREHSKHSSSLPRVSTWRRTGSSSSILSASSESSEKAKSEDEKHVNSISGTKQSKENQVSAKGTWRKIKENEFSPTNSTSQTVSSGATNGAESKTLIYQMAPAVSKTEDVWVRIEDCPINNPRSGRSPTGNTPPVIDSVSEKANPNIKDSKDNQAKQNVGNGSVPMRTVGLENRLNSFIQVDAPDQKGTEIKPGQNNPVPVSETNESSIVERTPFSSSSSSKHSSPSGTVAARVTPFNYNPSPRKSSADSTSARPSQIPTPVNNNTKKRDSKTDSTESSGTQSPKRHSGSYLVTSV
endogenous pAPC (APC protein, 2843 amino acids): residues 2-2843 of P25054
carboxy-terminal 155 amino acids of pAPC: residues 2689-2843 of P25054

Measured: binding

B1: Siah-1 (full-length, a.a. 1-298) (protein, human, UniProt Q8IUQ4 1-282, looked up)
chain: MSRQTATALPTGTSKCPPSQRVPALTGTTASNNDLASLFECPVCFDYVLPPILQCQSGHLVCSNCRPKLTCCPTCRGPLGSIRNLAMEKVANSVLFPCKYASSGCEITLPHTEKADHEELCEFRPYSCPCPGASCKWQGSLDAVMPHLMHQHKSITTLQGEDIVFLATDINLPGAVDWVMMQSCFGFHFMLVLEKQEKYDGHQQFFAIVQLIGTRKQAENFAYRLELNGHRRRLTWEATPRSIHEGIATAIMNSDCLVFDTSIAQLFAENGNLGINVTISMC
modifications: 35S-labeled (in vitro translated) in the GST pull-down
binds: [1] | [2] | [3] | [4] | [5]

B2: Myc epitope-tagged Siah-1 (protein, human, UniProt Q8IUQ4 1-282, looked up, not shown: small tags and cut ends)
chain: MSRQTATALPTGTSKCPPSQRVPALTGTTASNNDLASLFECPVCFDYVLPPILQCQSGHLVCSNCRPKLTCCPTCRGPLGSIRNLAMEKVANSVLFPCKYASSGCEITLPHTEKADHEELCEFRPYSCPCPGASCKWQGSLDAVMPHLMHQHKSITTLQGEDIVFLATDINLPGAVDWVMMQSCFGFHFMLVLEKQEKYDGHQQFFAIVQLIGTRKQAENFAYRLELNGHRRRLTWEATPRSIHEGIATAIMNSDCLVFDTSIAQLFAENGNLGINVTISMC
binds: [6] | [7]

Source: patent publication US20040175770A1
